Odorant receptor activation data for 6 molecules are collected here from the odorant receptor screen of Mainland et al. (2015).

Chains of the proteins cited; added tags and fusions are not shown. A line that says so, or that is headed by a name, gives the form on record, which may keep a tag or linker.
OR11H13, as listed by the source: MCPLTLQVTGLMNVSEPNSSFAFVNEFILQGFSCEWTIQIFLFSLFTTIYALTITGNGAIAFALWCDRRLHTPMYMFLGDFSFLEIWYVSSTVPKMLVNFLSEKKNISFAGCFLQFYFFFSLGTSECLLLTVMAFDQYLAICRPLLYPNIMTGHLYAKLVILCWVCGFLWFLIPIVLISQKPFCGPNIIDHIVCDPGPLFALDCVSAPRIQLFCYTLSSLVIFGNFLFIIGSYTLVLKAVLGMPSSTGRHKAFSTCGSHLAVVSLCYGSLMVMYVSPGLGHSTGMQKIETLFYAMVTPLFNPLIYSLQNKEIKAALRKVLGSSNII

The structures appear in SMILES notation. Several values for one entry are separate records, joined by “and”; a condition that tells them apart may be missing. Identical values can stand only once. The list shows a part of the results. Single wells; the ratio to wells without odorant was worked out here, and repeats agree poorly.

Among the test systems are OR10R2 clone 1400; OR10T2 clone 1032; OR10W1 R263Q clone 1176; OR10X1 clone 1368; OR10X1 clone 1516; OR10Z1 clone 1026; OR11A1 clone 1062; OR11H1 clone 1558; OR11H12 clone 1302; OR11H13 clone 1435; OR11H4 clone 1263; OR11H4 clone 1423; OR11H6 clone 1275; OR12D2 clone 1075; OR12D3 clone 1071; OR13A1 clone 1107; OR13C2 clone 1717.
Holding throughout (test): odorant receptor activation (CRE luciferase / Renilla) (fold of no-odor wells); higher = more activation
What all share (conditions): 100 µM

The subject of test [1] is OR10V1 Q101L/V117A/Q123W clone 1520.
Test [2] concerns OR11L1 G108S/F117L/A142T/R171P clone 1031.
Test [3] concerns OR12D2 V47F/L56P/S104F/F113L/L120R/V159I clone 1373.

Regarding `CC(=O)OC1CC2CCC1(C)C2(C)C` (stereo not given) [isobornyl acetate], the odorant receptor activation was 0.729 in the test with OR10R2 clone 1400; 1.43 in the test with OR10T2 clone 1032; 1.01 and 0.993 in test [1]; 1.06 in the test on OR10W1 R263Q clone 1176; 1.09 in the test with OR10X1 clone 1368; 1.17 and 1.15 with OR10X1 clone 1516. Moreover, the odorant receptor activation with OR10Z1 clone 1026 was 0.659; in the test with OR11A1 clone 1062 it was 0.634; in the test on OR11H1 clone 1558, 0.88; in the test on OR11H12 clone 1302, 1.37 and 0.678; in the test with OR11H13 clone 1435, 0.783; in the test on OR11H4 clone 1263, 1.31 and 1.22. Further, the odorant receptor activation is 0.826 in the test on OR11H4 clone 1423; 1.2 and 0.996 in the test with OR11H6 clone 1275; 0.362 in test [2]; 0.89 in [3]; 0.887 with OR12D2 clone 1075; 0.598 with OR12D3 clone 1071. In addition, the odorant receptor activation came to 1.47 in the test on OR13A1 clone 1107 and 1.48 with OR13C2 clone 1717.
In the case of `CC(C)CCC(=O)O` [4-methylvaleric acid], the odorant receptor activation with OR10R2 clone 1400 was 0.845; with OR10T2 clone 1032, 1.82; in test [1] it was 0.897; with OR10W1 R263Q clone 1176 it was 0.883; in the test with OR10X1 clone 1368, 0.878; in the test on OR10X1 clone 1516, 0.862. The odorant receptor activation amounted to 2.05 in the test on OR10Z1 clone 1026; 2.06 in the test on OR11A1 clone 1062; 0.934 in the test on OR11H1 clone 1558; 1.31 with OR11H12 clone 1302; 1.78 in the test on OR11H13 clone 1435; 1.25 in the test on OR11H4 clone 1263. Besides, the odorant receptor activation in the test with OR11H4 clone 1423 was found to be 1.49; in the test with OR11H6 clone 1275, 0.965; in test [2] it was 2.29; in test [3], 0.208; in the test on OR12D2 clone 1075, 1.18; in the test on OR12D3 clone 1071 it was 2.53. Besides, the odorant receptor activation with OR13A1 clone 1107 was 10.1; in the test on OR13C2 clone 1717, 0.863.
`CCCCCCCCCC=O` [decyl aldehyde]: the odorant receptor activation in the test with OR10R2 clone 1400 is 1.32; with OR10T2 clone 1032 it was 1.11; in test [1], 1.12; with OR10W1 R263Q clone 1176, 1.16; in the test with OR10X1 clone 1368 it was 1.25; in the test on OR10X1 clone 1516, 1.23. The odorant receptor activation turned out to be 1.08 in the test with OR10Z1 clone 1026; 1.08 with OR11A1 clone 1062; 0.882 in the test with OR11H1 clone 1558; 1.4 in the test with OR11H12 clone 1302; 1.85 in the test with OR11H13 clone 1435; 1.25 in the test on OR11H4 clone 1263. For the same molecule, the odorant receptor activation in the test on OR11H4 clone 1423 came out at 1.6; with OR11H6 clone 1275 it was 1.08; in test [2] it was 1.32; in test [3], 1.58; in the test with OR12D2 clone 1075, 1.04; in the test with OR12D3 clone 1071 it was 1.05. Also, the odorant receptor activation came to 1.06 in the test with OR13A1 clone 1107 and 0.965 in the test on OR13C2 clone 1717.
Turning to `COc1cc(C)ccc1O` [2-methoxy-4-methylphenol], the odorant receptor activation stood at 0.649 with OR10R2 clone 1400; 1.89 with OR10T2 clone 1032; 0.76 in test [1]; 1.12 in the test on OR10W1 R263Q clone 1176; 0.802 in the test with OR10X1 clone 1368; 0.792 in the test on OR10X1 clone 1516. For the same molecule, the odorant receptor activation in the test on OR10Z1 clone 1026 turned out to be 2.15; in the test on OR11A1 clone 1062, 1.83; with OR11H1 clone 1558, 1.04; with OR11H12 clone 1302 it was 1.7; in the test on OR11H13 clone 1435 it was 1.47; with OR11H4 clone 1263, 0.913. Besides, the odorant receptor activation is 1.01 with OR11H4 clone 1423; 0.768 with OR11H6 clone 1275; 2.02 in test [2]; 0.182 in test [3]; 1.34 in the test on OR12D2 clone 1075; 2.22 with OR12D3 clone 1071. Moreover, the figures for the odorant receptor activation with OR13A1 clone 1107 and in the test on OR13C2 clone 1717 were 7.32 and 0.816, respectively.
For the molecule `CC(=O)C(C)=O` [diacetyl], the odorant receptor activation amounted to 1.19 in the test on OR10R2 clone 1400; 0.959 in the test on OR10T2 clone 1032; 1.77 in [1]; 1.38 with OR10W1 R263Q clone 1176; 0.95 with OR10X1 clone 1368; 1.64 with OR10X1 clone 1516. Moreover, the odorant receptor activation with OR10Z1 clone 1026 amounted to 1.15; in the test with OR11A1 clone 1062 it was 0.895; in the test on OR11H1 clone 1558, 0.701; in the test with OR11H12 clone 1302, 1.25; in the test on OR11H13 clone 1435 it was 1.38; with OR11H4 clone 1263, 0.921. For the same molecule, the odorant receptor activation in the test with OR11H4 clone 1423 worked out at 1.37; in the test with OR11H6 clone 1275 it was 1.16; in test [2], 0.95; in test [3], 1.37; in the test with OR12D2 clone 1075 it was 0.959; in the test on OR12D3 clone 1071 it was 1.04. The odorant receptor activation in the test with OR13A1 clone 1107 was 1.3; with OR13C2 clone 1717 it was 0.804.
For the molecule `CCCCCCCCOC(C)=O` [octyl acetate], the odorant receptor activation worked out at 1.35 in the test with OR10R2 clone 1400; 1.15 in the test on OR10T2 clone 1032; 1.01 in test [1]; 1.08 in the test with OR10W1 R263Q clone 1176; 1.02 with OR10X1 clone 1368; 0.87 in the test on OR10X1 clone 1516. Besides, the odorant receptor activation was found to be 1 in the test on OR10Z1 clone 1026; 1.13 in the test with OR11A1 clone 1062; 0.99 in the test on OR11H1 clone 1558; 1.53 with OR11H12 clone 1302; 1.07 with OR11H13 clone 1435; 1.15 in the test on OR11H4 clone 1263. For the same molecule, the odorant receptor activation stood at 0.972 in the test with OR11H4 clone 1423; 1.2 with OR11H6 clone 1275; 1.21 in [2]; 0.969 in test [3]; 1.14 with OR12D2 clone 1075; 1.13 in the test on OR12D3 clone 1071. The odorant receptor activation in the test with OR13A1 clone 1107 was 1.47; in the test with OR13C2 clone 1717 it was 0.656.
